Test results taken from US20100261642A1, “NUTRITIONAL FORMULATION WITH HIGH ENERGY CONTENT” (N.V. NUTRICIA, priority 2007, published 2010).
At least one compound was matched to its structure with a doubt left.

Tested on: intestinal epithelial cell lines T84
Assay: IL-4 mediated barrier disruption in T84 monolayers (flux and transepithelial resistance)
Type: cell-based, human
Details: for effect on IL-4 mediated barrier disruption (flux), in words: 100 μM, Table 1 summary, compared to control
Protocol: Monolayers (MC) of intestinal epithelial cell lines T84 (ATCC, USA) were cultured on transwell filters (Corning, Costar BV, The Netherlands) allowing both mucosal and serosal sampling and stimulation of human intestinal epithelial cells. Two weeks post confluency the monolayers were incubated in the presence of IL-4 (2 ng/ml, serosal compartment, Sigma, USA) with or without polyunsaturated fatty acids ARA, DHA, GLA, EPA, or control palmitic acid (10 μM or 100 μM, mucosal compartment, Sigma, St. Louis, USA). Cells were pre-incubated with ARA, DHA, EPA, or palmitic acid for 48 hr prior to the IL-4 incubation. The co-incubation of PUFA's and palmitic acid with IL-4 was continued for another 48 hr; while culture medium and additives were changed every 24 hr. The epithelial barrier function was determined by measuring the transepithelial resistance (TER) and permeability.

Row | SMILES | protective effect on IL-4 mediated barrier destruction (4 kD dextran flux), FIG. 1 (10 μM and 100 μM, time and dose dependent) | effect on IL-4 mediated barrier disruption (flux), in words
1 | CC/C=C\C/C=C\C/C=C\C/C=C\C/C=C\C/C=C\CCC(=O)O [DHA, docosahexaenoic acid] | protect against IL-4 mediated barrier disruption | inhibit the increased flux caused by IL-4
2 | CC/C=C\C/C=C\C/C=C\C/C=C\C/C=C\CCCC(=O)O [EPA, eicosapentaenoic acid] | – | inhibit the increased flux caused by IL-4
